Source: PubChem BioAssay AID1259308 (NCATS, 2017)
Assay: 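Knock-downs that increase output of a recombinant reporter protein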 (primary screen). Cells: human HEK293 embryonic kidney cells stably expressing firefly luciferase (HEK-CMV-Luc2-Hygro). Reagents: single siRNA against human genes, 0.8 pmol siRNA per well. Duration: 72 h. Measured: 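Reporter luminescence and viable-cell signal on separate replicate plates, given as percent of non-targeting control and median/MAD z-scores, plus per-cell luciferase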. Reading the numbers: total luciferase, z-score and total luciferase, % of control: higher = more reporter protein produced. Active means: 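An siRNA counts as active if its total luciferase robust z-score exceeds 3; genes with two or more such siRNAs out of three were retested with fresh siRNAs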. Meaning of the calls: active = raised luciferase; inactive = no rise.
Shown is a random part of about 59,000 deposited reagents. In the full data, about 1,510 (2.6%) got an active call. 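Calls use total luciferase alone and ignore viability, so some active siRNAs may act by altering cell number.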 A number with no mark means an inactive call. The numbers tell different reagents against one gene apart. Further read-outs or replicates are left out here.

IFNA5 #1 — total luciferase, z-score: 3.89 (active); total luciferase, % of control: 159
IFNA5 #2 — total luciferase, z-score: 0.834; total luciferase, % of control: 98.5
IFNA5 #3 — total luciferase, z-score: -1.68; total luciferase, % of control: 48.4
ZNF177 #1 — total luciferase, z-score: 0.827; total luciferase, % of control: 98.3
ZNF177 #2 — total luciferase, z-score: 0.323; total luciferase, % of control: 88.3
ZNF177 #3 — total luciferase, z-score: -1.74; total luciferase, % of control: 47.3
KIF9 #1 — total luciferase, z-score: -1.72; total luciferase, % of control: 47.6
KIF9 #2 — total luciferase, z-score: 0.623; total luciferase, % of control: 94.3
KIF9 #3 — total luciferase, z-score: -0.504; total luciferase, % of control: 71.9
CDC25B #1 — total luciferase, z-score: 0.161; total luciferase, % of control: 85.1
CDC25B #2 — total luciferase, z-score: -1.53; total luciferase, % of control: 51.5
CDC25B #3 — total luciferase, z-score: 0.127; total luciferase, % of control: 84.4

Records above marked active (1):
IFNA5 #1 — total luciferase, z-score: 3.89 (active); total luciferase, % of control: 159
